Reference: PubChem BioAssay AID248 (DTP/NCI, 2004)
The list shows only some results of the screen, not a fair sample: it is rich in T/C values a quarter to a half above the control, in often repeated tests (any T/C) and in doses without a T/C. Further doses and runs are listed elsewhere. T/C gives the treated animals as a percentage of the vehicle group. Some entries give survivors of the animals treated and no T/C: the source holds a T/C of zero for them, seemingly a mark for toxic or unscored doses. Some survivor counts are full or nearly so, which does not show that the dose was tolerated: survival well below the control is almost never listed, so the zero probably covers shortened survival too. Survivors were counted at the toxicity check, usually on the fifth day, unless a day is given; later deaths do not show. Schedules are NCI's codes, read here as Q, the interval in days (D) or hours (H), X, the number of doses. Some entries were tested several times; the results are listed from low to high. Some schedules carry Z or #; the key to these is not given. Where survival is the endpoint, the PubChem record calls one and a half times the control and up active, and a quarter to a half above the control has no call in these data; cut-offs in other NCI protocols can differ. Some T/C values are followed by the survivors on the day toxicity was checked, most often the fifth; without a count, all were alive then.

Test system: L1210 leukemia ip in BDF1 mice, survival T/C
Assay: NCI In Vivo Anticancer Drug Screen. Data for tumor model L1210 Leukemia (intraperitoneal) in B6D2F1 (BDF1) mice
Conditions: T/C endpoint: mean survival time, higher T/C = longer survival
[1] = dose: 25.0 mg/kg/injection, schedule: Q01DX009 (ip), vehicle: saline
[2] = dose: 100.0 mg/kg/injection, schedule: Q04DX002 (ip), vehicle: saline

SMILES: CC(=O)OCC1OC(n2ccc(N)nc2=O)C(OC(C)=O)C1OC(C)=O (stereo unspecified)
- T/C (dose: 18.0 mg/kg/injection, schedule: Q01DX009 (ip), vehicle: carboxymethylcellulose (CMC)): 126 % of control
- T/C (dose: 18.0 mg/kg/injection, schedule: Q03HX008 (ip), vehicle: carboxymethylcellulose (CMC)): 138 % of control
- survivor count (dose: 18.0 mg/kg/injection, schedule: Q## X024 (oral), vehicle: water): 3 of 10
- T/C (dose: 30.0 mg/kg/injection, schedule: Q01DX009 (ip), vehicle: carboxymethylcellulose (CMC)): 149 % of control
- T/C (dose: 30.0 mg/kg/injection, schedule: Q01DX011 (oral), vehicle: water): 133 % of control
- T/C (dose: 30.0 mg/kg/injection, schedule: Q03HX008 (ip), vehicle: carboxymethylcellulose (CMC)): 142 % of control
- survivor count (dose: 37.0 mg/kg/injection, schedule: Q## X008 (oral), vehicle: water): 6 of 10
- T/C (dose: 45.0 mg/kg/injection, schedule: Q01DX011 (oral), vehicle: water): 132 % of control
- T/C (dose: 50.0 mg/kg/injection, schedule: Q01DX015 (oral), vehicle: carboxymethylcellulose (CMC)): 135 % of control
- T/C (dose: 65.0 mg/kg/injection, schedule: Q01DX011 (oral), vehicle: water): 145 % of control
- survivor count (dose: 75.0 mg/kg/injection, schedule: Q## X008 (oral), vehicle: water): 3 of 10
- T/C (dose: 75.0 mg/kg/injection, schedule: Q## X024 (oral), vehicle: water): 135 % of control [8 of 10 alive]
- T/C (dose: 85.0 mg/kg/injection, schedule: Q01DX015 (ip), vehicle: saline): 147 % of control
- T/C (dose: 125.0 mg/kg/injection, schedule: Q01DX015 (ip), vehicle: saline): 129 % of control
- T/C (dose: 150.0 mg/kg/injection, schedule: Q01DX005 (oral), vehicle: water): 127 % of control
- T/C (dose: 150.0 mg/kg/injection, schedule: Q01DX009 (oral), vehicle: water): 146 % of control
- survivor count (dose: 150.0 mg/kg/injection, schedule: Q## X008 (oral), vehicle: water): 4 of 10
- T/C (dose: 300.0 mg/kg/injection, schedule: Q01DX001 (sc), vehicle: water): 130 % of control
- T/C (dose: 300.0 mg/kg/injection, schedule: Q01DX005 (oral), vehicle: water): 130 % of control
- T/C (dose: 300.0 mg/kg/injection, schedule: Q## X003 (oral), vehicle: water): 140 % of control
- survivor count (dose: 300.0 mg/kg/injection, schedule: Q## X008 (oral), vehicle: water): 3 of 10
- survivor count (dose: 300.0 mg/kg/injection, schedule: Q## X024 (oral), vehicle: water): 5 of 10
- survivor count (dose: 400.0 mg/kg/injection, schedule: Q01DX009 (ip), vehicle: water): 10 of 10
- survivor count (dose: 400.0 mg/kg/injection, schedule: Q01DX009 (sc), vehicle: water): 10 of 10
- T/C (dose: 500.0 mg/kg/injection, schedule: Q01DX001 (ip), vehicle: saline): 134 % of control
- survivor count (dose: 500.0 mg/kg/injection, schedule: Q01DX015 (ip), vehicle: saline): 6 of 6
- T/C (dose: 600.0 mg/kg/injection, schedule: Q01DX001 (ip), vehicle: water): 136 % of control
- T/C (dose: 600.0 mg/kg/injection, schedule: Q01DX001 (sc), vehicle: water): 137 % of control
- T/C (dose: 600.0 mg/kg/injection, schedule: Q01DX005 (oral), vehicle: water): 148 % of control
- T/C (dose: 600.0 mg/kg/injection, schedule: Q## X008 (oral), vehicle: water): 125 % of control
- T/C (dose: 660.0 mg/kg/injection, schedule: Q01DX001 (ip), vehicle: carboxymethylcellulose (CMC)): 133 % of control
- T/C (dose: 1200.0 mg/kg/injection, schedule: Q01DX001 (ip), vehicle: water): 145 % of control
- T/C (dose: 1200.0 mg/kg/injection, schedule: Q01DX001 (sc), vehicle: water): 141 % of control
- T/C (dose: 1200.0 mg/kg/injection, schedule: Q01DX009 (oral), vehicle: water): 128 % of control [9 of 10 alive]
- T/C (dose: 1200.0 mg/kg/injection, schedule: Q## X006 (oral), vehicle: water): 131 % of control
- T/C (dose: 1200.0 mg/kg/injection, schedule: Q## X008 (oral), vehicle: water): 147 % of control
- T/C (dose: 1200.0 mg/kg/injection, schedule: Q## X024 (oral), vehicle: water): 131 % of control
- T/C (dose: 2400.0 mg/kg/injection, schedule: Q01DX001 (oral), vehicle: water): 140 % of control
- T/C (dose: 2400.0 mg/kg/injection, schedule: Q## X008 (oral), vehicle: water): 144 % of control
- T/C (dose: 2400.0 mg/kg/injection, schedule: Q## X024 (oral), vehicle: water): 145 % of control
- survivor count (dose: 3053.0 mg/kg/injection, schedule: Q01DX001 (ip), vehicle: carboxymethylcellulose (CMC)): 0 of 10
- survivor count (dose: 3053.0 mg/kg/injection, schedule: Q04DX003 (ip), vehicle: carboxymethylcellulose (CMC)): 3 of 10

SMILES: NC(N)=N/N=C/Cc1ccccc1
- survivor count (dose: 125.0 mg/kg/injection, schedule: Q01DX Z (ip), vehicle: saline): 3 of 6
- survivor count (dose: 250.0 mg/kg/injection, schedule: Q01DX Z (ip), vehicle: saline): 0 of 6
- survivor count (dose: 500.0 mg/kg/injection, schedule: Q01DX Z (ip), vehicle: saline): 0 of 6

SMILES: CCOC(=O)C1(C(C)C)OC2(O)C3CCCN3CC(C(C)C)N2C1=O (stereo unspecified)
- survivor count (dose: 200.0 mg/kg/injection, schedule: Q04DX003 (ip), vehicle: saline with Tween-80): 5 of 6
- survivor count (dose: 400.0 mg/kg/injection, schedule: Q04DX003 (ip), vehicle: saline with Tween-80): 0 of 6

SMILES: CCOP(=O)(SCC)N(CC)CC (stereo unspecified)
- survivor count (dose: 75.0 mg/kg/injection, schedule: Q01DX001 (ip), vehicle: saline): 2 of 6
- survivor count (dose: 150.0 mg/kg/injection, schedule: Q01DX001 (ip), vehicle: saline): 0 of 6
- survivor count (dose: 300.0 mg/kg/injection, schedule: Q01DX001 (ip), vehicle: saline): 0 of 6

SMILES: CC(C)C(=O)Nc1cccc(OC(=O)NC(C)(C)C)c1
- survivor count (dose: 100.0 mg/kg/injection, schedule: Q01DX001 (ip), vehicle: saline with Tween-80): 6 of 6

SMILES: CCCCOP(=O)(OCCCC)N1CCCCC1
- survivor count (dose: 100.0 mg/kg/injection, schedule: Q04DX002 (ip), vehicle: saline with Tween-80): 1 of 3
- survivor count (dose: 200.0 mg/kg/injection, schedule: Q04DX002 (ip), vehicle: saline with Tween-80): 1 of 3
- survivor count (dose: 400.0 mg/kg/injection, schedule: Q04DX002 (ip), vehicle: saline with Tween-80): 0 of 3

SMILES: NC(CCl)=NCc1ccccc1
- T/C [1]: 88, 98, 104 % of control
- survivor count [1]: 3 of 3
- survivor count (dose: 50.0 mg/kg/injection, schedule: Q01DX009 (ip), vehicle: saline): 5 of 6 and 3 of 3
- survivor count (dose: 100.0 mg/kg/injection, schedule: Q01DX001 (ip), vehicle: saline): 2 of 6
- survivor count (dose: 100.0 mg/kg/injection, schedule: Q01DX009 (ip), vehicle: saline): 0 of 3 and 0 of 6
- T/C [2]: 88 % of control
- survivor count [2]: 1 of 6, 1 of 3, 5 of 6
- survivor count (dose: 200.0 mg/kg/injection, schedule: Q04DX002 (ip), vehicle: saline): 0 of 3 and 0 of 6
- survivor count (dose: 400.0 mg/kg/injection, schedule: Q04DX002 (ip), vehicle: saline): 0 of 3 and 0 of 6

SMILES: CCCCC1=NCCc2c1cc1c([nH]c3ccccc31)c2C
- survivor count (dose: 400.0 mg/kg/injection, schedule: Q04DX003 (ip), vehicle: saline): 1 of 6

SMILES: CCCCCCCCCCCC(=O)NC(=S)Nc1nccs1
- survivor count (dose: 100.0 mg/kg/injection, schedule: Q04DX003 (ip), vehicle: Klucel (hydroxypropylcellulose) (HPC)): 6 of 6
- survivor count (dose: 200.0 mg/kg/injection, schedule: Q04DX003 (ip), vehicle: Klucel (hydroxypropylcellulose) (HPC)): 6 of 6
- survivor count (dose: 400.0 mg/kg/injection, schedule: Q04DX003 (ip), vehicle: Klucel (hydroxypropylcellulose) (HPC)): 6 of 6

SMILES: OCC(O)CCBr (stereo unspecified)
- T/C (dose: 400.0 mg/kg/injection, schedule: Q01DX009 (ip), vehicle: saline): 130 % of control

SMILES: NC1CCC(CCCC2CCCC2)CC1 (stereo unspecified)
- survivor count (dose: 100.0 mg/kg/injection, schedule: Q01DX009 (ip), vehicle: saline with Tween-80): 0 of 6
- survivor count (dose: 200.0 mg/kg/injection, schedule: Q01DX009 (ip), vehicle: saline with Tween-80): 0 of 6
- survivor count (dose: 400.0 mg/kg/injection, schedule: Q01DX009 (ip), vehicle: saline with Tween-80): 0 of 6
